Results deposited as PubChem BioAssay AID652259 (Drosophila RNAi Screening Center, 2013).

Assay: 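Genome-wide hunt for genes that control Wingless pathway activity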 (primary screen)
Cells: Drosophila clone 8 imaginal disc epithelial cells
Reagents: long dsRNA against Drosophila genes
Conditions: pathway stimulated by co-transfected Wingless expression plasmid
Read-out: 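Dual luciferase reads per well after Wingless plasmid stimulation: reporter firefly light and Renilla control light; activity is firefly divided by Renilla, a ratio not deposited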
Reading the numbers: firefly reporter light: higher = more Wg reporter light, before normalisation; Renilla control light: higher = more transfected or surviving cells
Hit rule: 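a knock-down is a candidate when at least two out of four statistical tests show it departing from its plate mean; one test alone signals a weak candidate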
Calls: active = candidate regulator (raises or lowers reporter); inactive = not a candidate
The screen tested about 22,000 reagents; this is a random part of those that have a named target and a result. Of all reagents, 233 (1.1%) were called active. 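Light values are raw, unnormalised plate reads; the ratio scores behind the reporter calls were not deposited.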 A number with no mark means an inactive call. A plus sign joins genes that one reagent is predicted to hit. Not stated in the record: the amount of reagent, the time to read-out, the dose of the treatment.

The first 7 entries, ahead of the listing:
Gene | DRSC id | reporter change call, replicate 1 | firefly reporter light, replicate 1 | firefly reporter light, replicate 2 | Renilla control light, replicate 1 | Renilla control light, replicate 2
CG34160 | DRSC01131 | – | 19885 | – | 8210 | –
NFAT (NFAT nuclear factor) | DRSC18991 | – | 2192 | – | 389 | –
NFAT (NFAT nuclear factor) | DRSC19393 | – | 26244 | – | 12096 | –
CG42811 | DRSC15367 | – | 19138 | – | 16081 | –
CG17122 | DRSC10245 | – | 16933 | – | 6468 | –
Zasp66 (Z band alternatively spliced PDZ-motif protein 66) | DRSC08932 | – | 3665 | – | 1379 | –
Zasp66 (Z band alternatively spliced PDZ-motif protein 66) | DRSC10631 | – | 5301 | – | 2938 | –

Results, from the first entry:
Gene | DRSC id | reporter change call, replicate 1 | firefly reporter light, replicate 1 | firefly reporter light, replicate 2 | Renilla control light, replicate 1 | Renilla control light, replicate 2
CG34160 | DRSC01131 | – | 19885 | – | 8210 | –
NFAT (NFAT nuclear factor) | DRSC18991 | – | 2192 | – | 389 | –
NFAT (NFAT nuclear factor) | DRSC19393 | – | 26244 | – | 12096 | –
CG42811 | DRSC15367 | – | 19138 | – | 16081 | –
CG17122 | DRSC10245 | – | 16933 | – | 6468 | –
Zasp66 (Z band alternatively spliced PDZ-motif protein 66) | DRSC08932 | – | 3665 | – | 1379 | –
Zasp66 (Z band alternatively spliced PDZ-motif protein 66) | DRSC10631 | – | 5301 | – | 2938 | –
Zasp66 (Z band alternatively spliced PDZ-motif protein 66) | DRSC10632 | – | 1892 | 7728 | 1136 | 3322
CG15403 | DRSC00417 | – | 3661 | 8160 | 1027 | 3450
CG8858 | DRSC07290 | – | 5703 | – | 2444 | –
Oatp33Eb (Organic anion transporting polypeptide 33Eb) | DRSC02955 | – | 3595 | 10339 | 1424 | 4728
trr (trithorax-related) | DRSC18845 | – | 2224 | 4756 | 567 | 1193
CG11007 | DRSC06023 | – | 8245 | – | 2695 | –
ttm3 (tiny tim 3) | DRSC03736 | – | 2530 | 7851 | 843 | 3581
CG33223 | DRSC17572 | – | 3088 | – | 741 | –
fmt (fiery mountain) | DRSC09717 | – | 5162 | – | 1714 | –
CG10462 | DRSC02058 | – | 6018 | – | 1341 | –
CG18278 + CG30059 | DRSC05418 | – | 21493 | – | 18197 | –
CG11211 | DRSC04851 | – | 3030 | 10724 | 992 | 4235
kon (kon-tiki) | DRSC02033 | – | 8976 | – | 3004 | –
zetaTry (zetaTrypsin) | DRSC07720 | – | 8298 | – | 3104 | –
Sfp38D (Seminal fluid protein 38D) | DRSC01810 | – | 18210 | – | 10595 | –
Ugt36E1 (UDP-glycosyltransferase family 36 member E1) | DRSC02599 | – | 5768 | – | 1497 | –
msps (mini spindles) | DRSC17004 | – | 3930 | 9974 | 752 | 2464
Vps37B (Vacuolar protein sorting 37B) | DRSC12165 | – | 5014 | – | 953 | –
Adh + Adhr | DRSC01862 | – | 6976 | – | 1946 | –
Adh + Adhr | DRSC01863 | – | 3698 | 7109 | 1575 | 3954
CG7778 | DRSC03067 | – | 10055 | – | 4583 | –
CG10907 | DRSC09804 | – | 6009 | – | 2985 | –
Cubn2 (Cubilin 2) | DRSC10561 | – | 9185 | – | 3549 | –
Cubn2 (Cubilin 2) | DRSC22044 | – | 4.64e5 | 4.81e5 | 2.10e5 | 1.96e5
Pdxk (Pyridoxal kinase) | DRSC10419 | – | 5817 | – | 2676 | –
Sry-beta (Serendipity beta) | DRSC16868 | – | 2600 | 4299 | 541 | 966
Den1 (Deneddylase 1) | DRSC07195 | – | 7804 | – | 2972 | –
Usp10 (Ubiquitin specific protease 10) | DRSC08282 | – | 20824 | – | 5482 | –
Usp10 (Ubiquitin specific protease 10) | DRSC08373 | – | 4453 | – | 1818 | –
CG13018 | DRSC06274 | – | 6148 | – | 2055 | –
TwdlD (TweedleD) | DRSC14738 | – | 6241 | – | 2576 | –
CG33333 | DRSC13233 | – | 2292 | – | 1500 | –
flip (flippy) | DRSC12326 | – | 17539 | – | 6025 | –
Mad | DRSC00759 | – | 2506 | 9286 | 992 | 2875
CG31287 | DRSC13138 | – | 2459 | – | 482 | –
CG5641 | DRSC15852 | – | 8979 | – | 2896 | –
CG7974 | DRSC08607 | – | 17417 | – | 4114 | –
Abp1 (Actin binding protein 1) | DRSC09693 | – | 6923 | – | 2112 | –
CG8774 | DRSC16445 | – | 6220 | – | 2547 | –
CG11369 | DRSC17779 | – | 30929 | – | 9536 | –
CG5245 | DRSC15750 | – | 16358 | – | 3010 | –
anne (anne boleyn) | DRSC17103 | – | 3344 | – | 1501 | –
Rad51D (Rad51 recombinase D) | DRSC06840 | – | 2792 | 10060 | 801 | 3180
Smg5 (Smg5 nonsense mediated mRNA decay factor) | DRSC03124 | – | 6886 | – | 2381 | –
CG11110 | DRSC06037 | – | 3357 | – | 2242 | –
raskol | DRSC19202 | – | 2682 | – | 1376 | –
raskol | DRSC19731 | – | 23879 | – | 10053 | –
raskol | DRSC19964 | – | 22565 | – | 7881 | –
raskol | DRSC19967 | Wg reporter activity raised (active) | 19691 | – | 2246 | –
raskol | DRSC21788 | – | 3.12e5 | 4.61e5 | 1.67e5 | 1.82e5
CG32243 | DRSC08105 | – | 4700 | – | 2128 | –
CG14907 + Mettl4 | DRSC15026 | – | 11340 | – | 3603 | –
CG14907 + Mettl4 | DRSC15027 | – | 13843 | – | 3434 | –
Nrg (Neuroglian) | DRSC17573 | – | 3936 | – | 1125 | –
Nrg (Neuroglian) | DRSC18688 | – | 1890 | 6823 | 888 | 2410
CG13077 | DRSC02181 | – | 3708 | 4712 | 912 | 1973
CG8952 | DRSC20133 | – | 2497 | 6076 | 880 | 2336
Mhcl (Myosin heavy chain-like) | DRSC13130 | – | 1874 | – | 949 | –
Mhcl (Myosin heavy chain-like) | DRSC14216 | – | 13329 | – | 3309 | –
Mhcl (Myosin heavy chain-like) | DRSC16753 | – | 17431 | – | 3613 | –
CG33263 | DRSC10108 | – | 5244 | – | 2602 | –
CG12003 | DRSC08214 | – | 5787 | – | 2864 | –
CG11251 | DRSC09825 | – | 5609 | – | 3178 | –
CG15547 | DRSC15085 | – | 8072 | – | 2580 | –
Orp8 (Oxysterol-binding protein-related protein 8) | DRSC15110 | – | 35952 | – | 6137 | –
Orp8 (Oxysterol-binding protein-related protein 8) | DRSC15712 | – | 2506 | 4112 | 948 | 1400
